Primary screen of a compound library

The chains behind the UniProt entries cited, without tags or fusion partners.
UniProt E9BF75, entry or part of it: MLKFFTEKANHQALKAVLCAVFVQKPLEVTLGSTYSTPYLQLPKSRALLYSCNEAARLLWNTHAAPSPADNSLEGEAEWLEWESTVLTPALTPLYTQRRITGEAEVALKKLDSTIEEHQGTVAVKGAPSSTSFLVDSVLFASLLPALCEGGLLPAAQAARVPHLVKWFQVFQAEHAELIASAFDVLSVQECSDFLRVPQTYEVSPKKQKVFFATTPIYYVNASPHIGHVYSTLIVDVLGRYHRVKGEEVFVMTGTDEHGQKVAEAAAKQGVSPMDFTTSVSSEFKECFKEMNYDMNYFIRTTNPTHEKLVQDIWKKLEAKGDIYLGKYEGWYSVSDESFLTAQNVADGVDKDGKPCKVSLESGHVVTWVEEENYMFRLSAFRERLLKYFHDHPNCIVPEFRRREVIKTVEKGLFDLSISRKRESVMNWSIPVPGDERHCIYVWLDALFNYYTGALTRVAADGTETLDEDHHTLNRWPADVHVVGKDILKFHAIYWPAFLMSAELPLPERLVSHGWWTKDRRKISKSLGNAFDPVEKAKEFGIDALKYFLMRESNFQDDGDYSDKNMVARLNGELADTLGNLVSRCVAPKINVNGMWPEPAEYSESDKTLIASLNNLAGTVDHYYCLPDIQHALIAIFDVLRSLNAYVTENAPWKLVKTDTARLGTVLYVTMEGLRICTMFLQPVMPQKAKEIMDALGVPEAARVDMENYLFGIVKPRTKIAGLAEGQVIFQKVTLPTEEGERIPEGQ

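Primary screen of methionyl-tRNA synthetase; the read-out is not stated. Target: Methionyl-tRNA synthetase (putative), Leishmania donovani (UniProt E9BF75). The test concentration is not given. Values are per cent inhibition. Of about 68,000 compounds tested this way, about 24 (0.035%) reached 50% or more in at least one test.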

All values are in %. How 0% and 100% were set is not recorded. Most values in the screen are low, and negative values occur. This is an unselected part of the compounds tested.

structure	inhibition
CCOc1ccc(Cl)cc1CNCCCn1ccnc1	5.394
Cc1ccc(Cc2cnc(C3CCNCC3)cn2)cc1	6.771
Cc1cc(-c2cnc(N3CCOCC3)nc2-c2cccnc2C)on1	5.825
O=C(COC1CCCCC1)N1CCN(C(=O)Cc2ccccn2)CC1	22.63
Cc1ccc(CN2CCOCC2c2[nH]ncc2C)cn1 (stereo not drawn)	15.94
CC(NC(=O)COC1CCCC1)c1nc(-c2ccccc2)c[nH]1 (stereo not drawn)	10.97
FC1(F)CCN(Cc2ccccn2)CC12CCN(c1ncccn1)C2 (stereo not drawn)	10.34
COc1ccc2c3c1CN(C(=O)N(C)C)CC3=CC(C)(C)CO2	15.62
CN(Cc1nnc(C2CC2)n1C)C1CCN(Cc2nccn2C)C1 (stereo not drawn)	17.78
N#Cc1ccc(SCCOCCO)c(Cl)c1	10.89
Cc1noc(C)c1CNC(=O)N1CCN(Cc2cscn2)CC1	10.2
CCCS(=O)(=O)NCc1cccnc1Oc1ccc(C)nc1	17.02
O=C(NCc1ccc(-n2cncn2)nc1)c1ccoc1	7.843
CNC(=O)CNC1CC2(CCN(c3ncccn3)CC2)c2ccccc21 (stereo not drawn)	10.73
Cc1cc(C)c(CNC(=O)NCCc2cccnc2)c(=O)[nH]1	16.19
COCc1nnc(NC(=O)CN2C(=O)c3ccccc3NC2C(C)C)s1 (stereo not drawn)	18.06
CNc1oc(-c2ccc(OC)c(S(=O)(=O)N(C)C)c2)nc1C#N	14.02
OC[C@H]1CN2CCN(c3ccccn3)C[C@@H]2[C@@H]1c1ccccc1	3.514
CCCN1CCc2[nH]nc(C(=O)N3CCNC(=O)C3)c2C1	8.333
COCC1COCCC12CCN(C(=O)COc1ccccc1C)CC2 (stereo not drawn)	4.899
CN1N=C(C(=O)N2CCCC(CCc3ccccc3F)C2)CCC1=O (stereo not drawn)	11.82
Cc1nc(C(=O)N(C)[C@@H]2CCC[C@@H](Oc3ccccc3)[C@@H]2O)co1	9.646
CN1[C@@H](C(=O)NCC2CC2)C[C@@H]2CN(Cc3ccsc3)C[C@@H]21	-2.885
CC(Oc1cccc(Cl)c1)C(=O)Nc1cnn(CCN(C)C)c1 (stereo not drawn)	5.167
O=c1[nH]c2ccc(S(=O)(=O)N(CCO)Cc3ccncc3)cc2[nH]1	13.37
CCn1c(N)nc2cc(C(=O)N3CCCN(C)CC3)cnc21	-5.955
Cc1nc(C)n(CC2CCCCN2CC(=O)Nc2cccnc2)n1 (stereo not drawn)	14.16
Cc1ccc(C(=O)N(C)C)cc1NC(=O)COCC1CC1	7.419
CC(C)C1CN(c2ncccn2)CCC(=O)N1CC1CC1 (stereo not drawn)	10.7
CCC(C(=O)NCC1=CCN(C)CC1)c1ccccc1 (stereo not drawn)	5.621
CN(CC(N)=O)C(=O)C1Cc2cc(Cl)ccc2O1 (stereo not drawn)	11.27
CN(CCc1ccccn1)C(=O)CCC1CCCN(c2ccncc2)C1 (stereo not drawn)	3.75
COc1ccc(-n2nc(C)c(C(C)=O)c2C)cc1C(N)=O	2.406
CCOC[C@H]1CC[C@H]2[C@H](CCN2Cc2c(C)noc2C)O1	11.4
Cc1cccc(-n2nc(CC(C)C)nc2CCCC(N)=O)c1	6.25
CC(=O)NCC(=O)N1CCCC(C(=O)c2ccc(C(C)(C)C)cc2)C1 (stereo not drawn)	-4.762
CCOCC1CN(CC2CC2)Cc2cnn(C)c21 (stereo not drawn)	20
CC(=O)c1cc(CN2CCCC2c2nc3ccc(C)cc3[nH]2)cs1 (stereo not drawn)	15.64
CC(C)N1CCN(C(=O)c2ccc(Cn3ccccc3=O)o2)CC1	17.46
Cn1cc2ncn(C3CCN(c4ccccc4F)CC3)c(=O)c2n1	8.122
CC(=O)N1CCN(C2CCCCc3ccccc32)CC1 (stereo not drawn)	16.08
O=C(CN1CCOc2ccc(Cl)cc21)NCCCn1cccn1	8.271
CCc1ccc(CNc2cc(N3CCCC3CO)ncn2)s1 (stereo not drawn)	18.03
c1coc(CN2CCOC3(COCCN(Cc4ccncc4)C3)C2)c1 (stereo not drawn)	13.53
CC(C)CN(C(=O)Nc1cccc(C(=O)N(C)C)c1)C1CC1	18.12
COc1nsc2nc(C3CCCN3C(C)=O)ccc12 (stereo not drawn)	17.44
Cc1cc(C)c(CNC(=O)N(C)CC2CCCCO2)c(=O)[nH]1 (stereo not drawn)	14.29
Cc1cc(C(=O)N(CC(F)(F)F)C2CCOCC2)c(C)o1	12.71
CC(C)(C)Nc1c(C2CCCN(C(=O)C3CC3)C2)nc2ccccn12 (stereo not drawn)	1.562
O=C1NCCO[C@H]2CN(C(=O)CCc3ccc(Cl)cc3)CC[C@@H]12	-1.754
O=C(O)c1nnn(-c2cccc(C(F)(F)F)c2)c1C1CC1	11.61
CC1CN(Cc2ccc(C#N)cc2F)CCN1Cc1nccn1C (stereo not drawn)	11.11
CS(=O)(=O)c1cnc(N2CCCC2)nc1C1CCN(C(=O)C2CC2)CC1	19.81
Cc1cccc(CN2C[C@@H](CN3CCCN(C)CC3)[C@@H](CO)C2)n1	1.064
CCC(=O)N1CCCN(Cc2cc(F)cc(Br)c2)CC1	18.7
CC(=O)Nc1nc(C(=O)NCc2ccc(N3CCCCCC3)nc2)cs1	11.81
COc1ccc(-n2cnnc2CC2CCNCC2)cc1	12.32
Cc1ccc(C(=O)N2CCCC(N(C)C(=O)OC(C)(C)C)C2)o1 (stereo not drawn)	12.04
OCCOCc1n[nH]c2c1CN(Cc1cccs1)C2	10.03
Cc1ccccc1C1(C(=O)NCCN2CCCCC2C)CCOCC1 (stereo not drawn)	12.22
O=C(CSc1nnc(N2CCNCC2)s1)Nc1ccccc1	2.752
CN(C)C(=O)C1CN(Cc2ccsc2)Cc2ccnn2C1 (stereo not drawn)	5.19
COc1ccc2nc(CNC(=O)c3cc(C(C)C)on3)[nH]c2c1	12.81
CO[C@H]1CCN(S(=O)(=O)c2cccnc2)[C@@H]2CN(CC3CC3)C[C@H]12	16.42
CCC(CC)NC(=O)c1cccnc1N1CCCC1c1ccccn1 (stereo not drawn)	1.389
O=C(CN1CCCC1)N1CCCC(CNS(=O)(=O)Cc2ccccc2)C1 (stereo not drawn)	19.93
O=C(C[S+]([O-])Cc1csc(C2CCCC2)n1)Nc1ccccc1 (stereo not drawn)	13.9
O=C(Cc1csc(-c2ccc(Cl)cc2)n1)NC(C(=O)O)c1ccccc1 (stereo not drawn)	14.52
CCC[C@H]1CN(C(=O)c2cc(-c3cccs3)n(C)n2)C[C@@H]1N	14.71
CNC(=O)Cn1nnc(-c2cc3ccccc3o2)n1	5.495
CC[C@@]1(O)CCN(C(=O)c2ccoc2)C[C@H]1O	12.06
O=c1[nH]c2c(-c3ccccn3)nsc2c(=O)n1CC1CC1	14.93
CCCN(CC1CC1)S(=O)(=O)c1ccc(NC(C)=O)cc1	12.89
CN1CCN(C(=O)c2[nH]nnc2Nc2ccccc2F)CC1	17
O=C1CCNc2ccc(F)cc2CN1Cc1ccccc1	3.014
COc1ccccc1-c1nc(C(=O)N2CCOCC2)n2ccncc12	11.43
CN(C)[C@@H]1CN(C(=O)Cc2ccccc2)[C@@H]2CCCO[C@H]12	2.078
COCCNC(=O)Nc1cccc(COCCOC(C)C)c1	25.47
CC(=O)N1C(CN2CCCC2)C[C@@H]2CN(C(=O)c3ccoc3)CC[C@@H]21 (stereo partly drawn)	3.922
Cc1ccc2c(c1)SCC(=O)N2Cc1noc(C2CCCO2)n1 (stereo not drawn)	8.094
CC(C)=CCN1CCN(C(=O)CSc2ccccn2)[C@H]2CS(=O)(=O)C[C@H]21	18.56
COCCCNC(=O)C(C)n1nc(-c2ccco2)cc(N)c1=O (stereo not drawn)	9.119
CCCN(C)CCC(=O)N1CCCC1Cn1cccn1 (stereo not drawn)	9.296
CNC(=O)C1(C)CCCN1Cc1cnn(C)c1C (stereo not drawn)	20.25
CSC1(CNC(=O)CCc2ccc(Cl)s2)CCOCC1	11.56
Cc1ccc(-c2cc(CNC(=O)N3CCC(O)CC3)on2)cc1	25.7
Cn1ccnc1CNCC1CCCN1c1cccnn1 (stereo not drawn)	13.25
CN(C)C(=O)CCC[S+]([O-])Cc1ccc(Cl)c(Cl)c1 (stereo not drawn)	12.21
CC(C)(C)N1CCCN(C(=O)c2csc(S(N)(=O)=O)c2)CC1	5.576
COc1cc(Cl)ccc1C(=O)NCC(=O)Nc1nccs1	13.98
COCCC1(CO)CCCN(C(=O)c2cccnc2OC)C1 (stereo not drawn)	14.44

Once more, the final 10:

structure	inhibition
COCCCNC(=O)C(C)n1nc(-c2ccco2)cc(N)c1=O (stereo not drawn)	9.119
CCCN(C)CCC(=O)N1CCCC1Cn1cccn1 (stereo not drawn)	9.296
CNC(=O)C1(C)CCCN1Cc1cnn(C)c1C (stereo not drawn)	20.25
CSC1(CNC(=O)CCc2ccc(Cl)s2)CCOCC1	11.56
Cc1ccc(-c2cc(CNC(=O)N3CCC(O)CC3)on2)cc1	25.7
Cn1ccnc1CNCC1CCCN1c1cccnn1 (stereo not drawn)	13.25
CN(C)C(=O)CCC[S+]([O-])Cc1ccc(Cl)c(Cl)c1 (stereo not drawn)	12.21
CC(C)(C)N1CCCN(C(=O)c2csc(S(N)(=O)=O)c2)CC1	5.576
COc1cc(Cl)ccc1C(=O)NCC(=O)Nc1nccs1	13.98
COCCC1(CO)CCCN(C(=O)c2cccnc2OC)C1 (stereo not drawn)	14.44

Data taken from ChEMBL document CHEMBL3988442, “University of Dundee, Small-Polar-MMV Screening Library” (2021).